Tests used:
[1] = general procedure: Fmoc solid-phase peptide synthesis; Fmoc-Rink resin; DIPCDI/HOBt.H2O; conditions: whole synthesis, scale 0.04 mmol, tetra-TFA salt
[2] = general procedure: Fmoc solid-phase peptide synthesis; Fmoc-Rink resin (0.51 mmol/g); DIPCDI/HOBt.H2O; conditions: whole synthesis, di-TFA salt

Substance	isolated mass [1]	isolated yield [1]	isolated mass [2]	isolated yield ([2]; scale of the general procedure 0.04 mmol)
BisPy-Amb-Phe-Gly-Leu-Arg-Trp-NH2	8.43 mg	15%	–	–
Gu-Amb-Phe-Gly-Leu-Arg-Trp-NH2	–	–	5.96 mg	14%

Reference: US20040142875A1 (priority 2003, published 2004)
